The values that follow come from article PMC9309532.

The exact form of at least one protein or probe is not confirmed. For part of these data: No signal at the amounts used counts as a negative.

The target of data set [1] is T1, SfSoxC (His-SfSOXC) (Spodoptera frugiperda) (UniProt A0A9R0D0D0). The experiment in a line: EMSA. The conditions noted are these: LightShift Chemiluminescent EMSA Kit (Thermo Fisher), manufacturer's protocol; pH and temperature not stated; recombinant protein; protein details: His; label: biotin.
Data set [2] concerns the target T1, SfSoxC (His-SfSOXC) (Spodoptera frugiperda). The experiment in a line: competition with a labelled probe. The conditions noted are these: band of labeled probe weaker at 1-fold, gone at 100-fold molar excess; LightShift Chemiluminescent EMSA Kit (Thermo Fisher), manufacturer's protocol; pH and temperature not stated; recombinant protein; protein details: His. A general note: A gel shift assay detects complexes by their altered migration in electrophoresis.

Regarding “TGTCGAGGACGCTGTAATT (double strand) [SfEH mutated probe, biotin-tagged]”, the binding result in data set [1] is listed as “no binding”.
In the case of “TGTCGATTCAAAGGTAATT (double strand) [SfEH probe, biotin-tagged]”, in data set [1], the binding result is “binds”.
For the sequence “TGTCGATTCAAAGGTAATT (double strand) [SfEH probe, unlabeled competitor]”, the binding result in data set [2] is “binds”.
